This assay has as its system HEK293A TEAD-LUC reporter. In words: TEAD-luciferase reporter activity (YAP activation), robust Z score vs plate; higher = stronger YAP/TEAD activation. Conditions: 24 h. (In general: A reporter such as luciferase makes a cellular process visible.)

This is one part of the list. Single values are uncertain here, since repeats match poorly.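 The human kidney-derived cells carry a stably integrated construct of eight TEAD-binding elements driving luciferase, read by luminescence in a drug-repurposing library screen. A compound counts as a hit when its signal is more than five robust Z scores above the plate mean.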

For `Nc1nc(Nc2ccccc2)nc2c1ncn2[C@@H]1O[C@H](CO)[C@@H](O)[C@H]1O`, the TEAD-luciferase reporter activity runs as follows: (compound concentration: 200 nM) inactive: -0.478; (compound concentration: 2 uM) inactive: -0.631; (compound concentration: 10 uM) inactive: -0.0499.

As to `O=C(O)c1ccc(NC(=O)[C@H](Cc2ccc(O)cc2)NC(=O)c2ccccc2)cc1` [bentiromide], the TEAD-luciferase reporter activity (compound concentration: 200 nM) was inactive: -0.374, the TEAD-luciferase reporter activity (compound concentration: 2 uM) is inactive: -0.276 and the TEAD-luciferase reporter activity (compound concentration: 10 uM) is inactive: -0.859.

Take `NCCCCC(N)C(=O)OC1Cc2c(O)cc(O)cc2OC1c1ccc(O)c(O)c1` (configuration not stated): the TEAD-luciferase reporter activity was inactive: -1.69 (compound concentration: 200 nM), inactive: -0.911 (compound concentration: 2 uM) and inactive: 2.12 (compound concentration: 10 uM).

On to `Cc1ccc2oc(-c3cc(Br)ccc3O)cc(=O)c2c1`, for which the TEAD-luciferase reporter activity was inactive: 1.43 (compound concentration: 200 nM), inactive: 0.0699 (compound concentration: 2 uM) and inactive: 2.77 (compound concentration: 10 uM).

Consider `O=C(NCc1ccccc1)C1CCN(Cc2c(-c3ccccc3)nc3ccccn23)CC1`, for which the TEAD-luciferase reporter activity is inactive: 0.216 (compound concentration: 200 nM), inactive: -0.72 (compound concentration: 2 uM) and inactive: 1.08 (compound concentration: 10 uM).

For the compound `O=C(O)c1ccc(CCCc2c(CCNS(=O)(=O)Cc3ccc(Cl)c(Cl)c3)n(C(c3ccccc3)c3ccccc3)c3ccc(Cl)cc23)cc1`, the TEAD-luciferase reporter activity is, setting by setting: (compound concentration: 200 nM) inactive: 0.0458; (compound concentration: 2 uM) inactive: -0.681; (compound concentration: 10 uM) inactive: -1.16.

For `C=C1/C(=C\C=C2/CCC[C@]3(C)[C@@H]([C@H](C)CCCC(C)(C)O)CC[C@@H]23)C[C@@H](O)C[C@@H]1O`, the TEAD-luciferase reporter activity reads like this: (compound concentration: 200 nM) inactive: 1.07; (compound concentration: 2 uM) inactive: 2; (compound concentration: 10 uM) inactive: 3.31.

Consider `CNCC1CC2c3ccccc3Cc3ccc(F)cc3C2O1` (configuration not stated), for which the TEAD-luciferase reporter activity runs as follows: (compound concentration: 200 nM) inactive: -0.541; (compound concentration: 2 uM) inactive: -1.05; (compound concentration: 10 uM) inactive: -1.04.

On to `C[n+]1ccc(C(=O)NCc2ccccc2)cc1` [Enisamium iodide], for which the TEAD-luciferase reporter activity runs as follows: (compound concentration: 200 nM) inactive: -2.63; (compound concentration: 2 uM) inactive: 1.46; (compound concentration: 10 uM) inactive: -0.333.

`O=S(=O)(Nc1cccc(OCc2ccc3ccccc3n2)c1)C(F)(F)F` [Ritolukast]: the TEAD-luciferase reporter activity is, setting by setting: (compound concentration: 200 nM) inactive: -0.0414; (compound concentration: 2 uM) inactive: 3.95; (compound concentration: 10 uM) inactive: 3.7.

For the compound `CC(O)COC[C@H]1O[C@@H]2O[C@H]3[C@H](O)[C@@H](O)[C@@H](O[C@H]4[C@H](O)[C@@H](O)[C@@H](O[C@H]5[C@H](O)[C@@H](O)[C@@H](O[C@H]6[C@H](O)[C@@H](O)[C@@H](O[C@H]7[C@H](O)[C@@H](O)[C@@H](O[C@H]8[C@H](O)[C@@H](O)[C@@H](O[C@H]1[C@H](O)[C@H]2O)O[C@@H]8COCC(C)O)O[C@@H]7COCC(C)O)O[C@@H]6COCC(C)O)O[C@@H]5COCC(C)O)O[C@@H]4COCC(C)O)O[C@@H]3COCC(C)O` (stereo partly drawn) [Hydroxypropyl-beta-cyclodextrin], the TEAD-luciferase reporter activity by setting is: (compound concentration: 200 nM) inactive: 1.51; (compound concentration: 2 uM) inactive: -1.7; (compound concentration: 10 uM) inactive: 0.88.

Consider `CO[C@H]1O[C@H](COS(=O)(=O)O)[C@@H](O[C@@H]2O[C@@H](C(=O)O)[C@@H](O[C@H]3O[C@H](COS(=O)(=O)O)[C@@H](O[C@@H]4O[C@H](C(=O)O)[C@@H](O[C@H]5O[C@H](COS(=O)(=O)O)[C@@H](O)[C@H](O)[C@H]5NS(=O)(=O)O)[C@H](O)[C@H]4O)[C@H](OS(=O)(=O)O)[C@H]3NS(=O)(=O)O)[C@H](O)[C@H]2OS(=O)(=O)O)[C@H](O)[C@H]1NS(=O)(=O)O` [Fondaparinux (sodium)], for which the TEAD-luciferase reporter activity reads like this: (compound concentration: 2 uM) inactive: -0.696; (compound concentration: 10 uM) inactive: -0.543.

In the case of `c1ccc2c(c1)CN1CCCC1=N2` [Deoxypeganine], the TEAD-luciferase reporter activity (compound concentration: 2 uM) is inactive: 0.0653.

As to `c1ccc2c(c1)CN1CCCC1=N2`, the TEAD-luciferase reporter activity was inactive: 1.57 (compound concentration: 200 nM) and inactive: -0.49 (compound concentration: 10 uM).

In the case of `CC(=O)N(CC(C)C(=O)O)c1c(I)cc(I)c(N)c1I` (configuration not stated), the TEAD-luciferase reporter activity was inactive: 1.25 (compound concentration: 200 nM), inactive: 0.463 (compound concentration: 2 uM) and inactive: 1.71 (compound concentration: 10 uM).

With `CC(C)NC(C)C(O)(c1ccccc1)c1nc2ccccc2[nH]1` (configuration not stated), the TEAD-luciferase reporter activity reads like this: (compound concentration: 200 nM) inactive: -0.864; (compound concentration: 2 uM) inactive: -0.582; (compound concentration: 10 uM) inactive: 0.134.

Take `O=C(c1ccc(Cl)cc1)N1CC2(CCN(C3CCCCC3)C2)Cc2ccccc21` (configuration not stated): the TEAD-luciferase reporter activity (compound concentration: 200 nM) was inactive: -0.754 and the TEAD-luciferase reporter activity (compound concentration: 10 uM) was inactive: 1.52.

For the compound `C=C1c2cccc(O)c2C(=O)C2=C(O)[C@]3(O)C(=O)C(C(N)=O)=C(O)[C@@H](N(C)C)[C@@H]3[C@@H](O)[C@H]12`, the TEAD-luciferase reporter activity (compound concentration: 200 nM) is inactive: 3.77, the TEAD-luciferase reporter activity (compound concentration: 2 uM) is inactive: -0.25 and the TEAD-luciferase reporter activity (compound concentration: 10 uM) is inactive: -0.982.

For `C[C@H](N)C(=O)N[C@H]1CCN(c2nc3c(cc2F)c(=O)c(C(=O)O)cn3C2CC2)C1`, the TEAD-luciferase reporter activity was inactive: -1.93 (compound concentration: 200 nM), inactive: 0.625 (compound concentration: 2 uM) and inactive: 0.0944 (compound concentration: 10 uM).

Turning to `O=S(=O)([O-])CCCS(=O)(=O)[O-]` [Eprodisate sodium], the TEAD-luciferase reporter activity is, setting by setting: (compound concentration: 200 nM) inactive: -1.15; (compound concentration: 2 uM) inactive: -2.49; (compound concentration: 10 uM) inactive: 0.00723.

With `CCCn1c(=O)c2[nH]c(C34CC5CC(CC3C5)C4)nc2n(CCC)c1=O` [Rolofylline], the TEAD-luciferase reporter activity is, setting by setting: (compound concentration: 200 nM) inactive: 0.531; (compound concentration: 2 uM) inactive: -0.369; (compound concentration: 10 uM) inactive: -0.212.

Turning to `CCOC(=O)Nc1ccc(NCc2ccc(F)cc2)nc1N` [flupirtine], the TEAD-luciferase reporter activity reads like this: (compound concentration: 200 nM) inactive: -1.33; (compound concentration: 2 uM) inactive: -0.335; (compound concentration: 10 uM) inactive: -0.143.

`COC(=O)CCNCCC1COc2ccccc2C1` (configuration not stated): the TEAD-luciferase reporter activity is inactive: -1.07 (compound concentration: 200 nM), inactive: -1.15 (compound concentration: 2 uM) and inactive: 1 (compound concentration: 10 uM).

Take `C[C@H](NS(=O)(=O)c1cnc2n1[C@](C)(Cc1ccc(OC(F)(F)F)cc1)C(=O)N2c1cc(Cl)cc(Cl)c1)C(N)=O`: the TEAD-luciferase reporter activity by setting is: (compound concentration: 200 nM) inactive: -1.67; (compound concentration: 2 uM) inactive: -0.84; (compound concentration: 10 uM) inactive: -0.966.

For the origin of these results see the supplement of paper PMC10735217.
